{"source": "the supplement of paper PMC8728848", "binders": {"B1": {"name": "PX9961K-bvu-480-28-480 (Bacteroides vulgatus) (protein)", "chain": "NKIPTTMAFRTVTDVDNAVNGLYDLMSGSGYYGAAMFAYGDMKGDDMQSSEESGVCNTCYMFNHRPNSLNAGSLWGRPFYILREAWNILNAIAEGKIESGDEKKLNALKGETMAVIALCQFDLTRCFGYPYTKDKGASLGAPLIDHLVGTYENPPRSTVAQAYDFIIETLEEAVTLMSEEKNNGRMNKYAARALLARIYLYHDDNRKAFDLADQLIKDADTSGSYALYPHEKYVAAWSVEAKFGSESFFEIANSVDDTPGRDSWGYLLNWYGYQKGFVTQKYAEQMLADPGDVRGHLLEENKYAGKTVWWLYKLRGTDLKTAPLECNNVVLRLSEVYLIAAEAGCKLGGDAAVQGLGYLNEIVKRGNPDNEVTMADYTLDRVLDERSKELVGEGHRFFDLLRNGKTIVRKGGYHLPSVDEEVDWDFYKCVLPIPEDQFIFSPEMEQNPGYPKN"}}, "key": {"[1]": {"target": "Neu5Gc(a2-8)Neu5Gc(a2-6)Gal(b1-4)GlcNAc", "test": "glycan array binding signal (z-score within array); higher = stronger binding", "conditions": "glycan notation: IUPAC condensed, linker removed", "procedure,_shortened": "(§1)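 Columns mapping to the same glycan were averaged after glycan names were converted to IUPAC-condensed notation. The data come from 3228 arrays in the Consortium for Functional Glycomics database, limited to those with an available protein sequence. Binding is reported as a within-array Z-score averaged across arrays of one protein sequence and across linkers.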"}, "[2]": {"target": "Neu5Gc(b2-6)Gal(b1-4)GlcNAc", "test": "glycan array binding signal (z-score within array); higher = stronger binding", "conditions": "glycan notation: IUPAC condensed, linker removed", "procedure,_shortened": "as §1"}}, "note": "This is one part of the list.", "data": [{"binder": "B1", "values": [{"measurement": "glycan array binding signal (z-score)", "setting": "[1]", "value": -0.167}, {"measurement": "glycan array binding signal (z-score)", "setting": "[2]", "value": -0.909}]}]}
